These results are taken from article PMC8263009.

The target of assay [1] is recombinant Flag-tagged CK1a (Neurospora). The assay can be described thus: pull-down; purified Flag-CK1a fusion protein and Flag antibody incubated with 2 mg extract of wild-type Neurospora grown in constant light at 25, 30 and 34°C; GammaBind G Sepharose; blot for FRQ; only the target purified.
Assay [2] deals with CK1a, endogenous (Neurospora (endogenous in Neurospora extracts)). The assay can be described thus: co-IP; CK1a antibody (endogenous CK1a) and GammaBind G Sepharose on 2 mg Neurospora extract; strains grown in constant light at 21 and 29°C; blot for FRQ.
Assay [3] deals with Myc-CK1a (Myc.His.CK1a expressed from the qa-2 promoter) (Neurospora). Kind of assay: co-IP; c-Myc monoclonal antibody and GammaBind G Sepharose on 2 mg Neurospora extract; cultures grown in constant light with quinic acid at 25, 30 and 34°C; wild-type, ckb^RIP and M19 strains that express Myc-CK1a; blot for FRQ; extraction buffer 50 mM HEPES pH 7.4, 137 mM NaCl, 10% glycerol.

Changes are numbered by the printed parent chain. In names and notes the source's numbering stands. No constants are given. Whether binding was seen depends on the method and setting. Binding seen in cells or lysates may run through a third protein. A result given as binding can be weak or reduced; the word gives no strength.

B1: FREQUENCY (FRQ), wild type (protein, UniProt P19970 1-989)
chain: MADSGDKSQGMRPPPFDSRGHPLPRRASPDKSITLENHRLARDTSSRVTSSSALGVTESQPQLKSSPTRRNSSGESEPTNWFNQSNRNPAAAFHDESHIMEVDPPFYQKETDSSNEESRYPPGRNPVHPPGGVQLPGFRPVAAHSSAADDYRSVIDDLTVENKRLKEELKRYKQFGSDVMRKEKLFEIKVHGLPRRKKRELEATLRDFAASLGDSSESTSQRRKTGRHGTAVHSSGVSLSKHDSSSSSRSRPVDSAYNSMSTGRSSHAPHSSGPSLGRPSLTRAKSVGTQKVENYLRDTPDGLLPHHIVMTDKEKKKLVVRRLEQLFTGKISGRNMQRNQSMPSMDAPLAPEGTNMAPPRPPPEGLREACIQLQDGDNPRKNRSSKDNGSASNSGGDQTELGGTGTGSGDGSGSGGRTGNNTSPPGAIAPDQRPTRPRDLDPDRVQIPSENMDYIRHLGLVSPEFLQGSRTSYQDVAPDAEGWVYLNLLCNLAQLHMVNVTPSFIRQAVSEKSTKFQLSADGRKIRWRGGTDGTKFSSDSSEDKSQQSPMTEDTEDGSDKNGRRKKRKTQQASSEIGRFGPSRSPSDTFHYKPMFVHRNSSSIETSLEESMSQGSEDAVDESNMGNSKWDFSGSGTTQQRRKRRYDGAIVYYTGAPFCTDLSGDPGDMSPTAQMTAGREVEGSGSGDEVEHVLQRTLSGSSLPIRPLSDDRARVAEVLDFDPGNPPELVADDGSSPNDEDFVFPWCEDPAKVRIQPIAKEVMEPSGLGGVLPDDHFVMLVTTRRVVRPILQRQLSRSTTSEDTAEFIAERLAAIRTSSPLPPRSHRLTVAPLQVEYVSGQFRRLNPAPLPPPAIFYPPFSTDSSWDDGDDLASDDEEVEEVEEDSYSEGQISRRANPHFSDNNTYMRKDDLAFDTETDVRMDSDDNRLSDSGHNMRAMMPRAEAVDGDDSPLAAVTGKEVDMLHTGSSVATAGGAESGYSSSMEDVSSS
As to B1, the binding result in assay [1], in assay [2] and in assay [3] was “binds” throughout.

B2: FRQ Q494N (FCD2 mutant) (protein, UniProt P19970 1-989)
chain: B1 chain with Q494N
Turning to B2, the binding result in assay [2] is listed as “binds”.
